Test results as given in article doi:10.1101/732289 (bioRxiv, 2020).
Results are given in words; binding and its absence hold for the method and conditions named. Binding seen in cells or lysates may run through a third protein. A yes stands for co-enrichment or nearness to the bait. Other partners may have been found.

Sequences of proteins named here, by UniProt entry; tags and fusion partners are left off.
UniProt Q96RN5: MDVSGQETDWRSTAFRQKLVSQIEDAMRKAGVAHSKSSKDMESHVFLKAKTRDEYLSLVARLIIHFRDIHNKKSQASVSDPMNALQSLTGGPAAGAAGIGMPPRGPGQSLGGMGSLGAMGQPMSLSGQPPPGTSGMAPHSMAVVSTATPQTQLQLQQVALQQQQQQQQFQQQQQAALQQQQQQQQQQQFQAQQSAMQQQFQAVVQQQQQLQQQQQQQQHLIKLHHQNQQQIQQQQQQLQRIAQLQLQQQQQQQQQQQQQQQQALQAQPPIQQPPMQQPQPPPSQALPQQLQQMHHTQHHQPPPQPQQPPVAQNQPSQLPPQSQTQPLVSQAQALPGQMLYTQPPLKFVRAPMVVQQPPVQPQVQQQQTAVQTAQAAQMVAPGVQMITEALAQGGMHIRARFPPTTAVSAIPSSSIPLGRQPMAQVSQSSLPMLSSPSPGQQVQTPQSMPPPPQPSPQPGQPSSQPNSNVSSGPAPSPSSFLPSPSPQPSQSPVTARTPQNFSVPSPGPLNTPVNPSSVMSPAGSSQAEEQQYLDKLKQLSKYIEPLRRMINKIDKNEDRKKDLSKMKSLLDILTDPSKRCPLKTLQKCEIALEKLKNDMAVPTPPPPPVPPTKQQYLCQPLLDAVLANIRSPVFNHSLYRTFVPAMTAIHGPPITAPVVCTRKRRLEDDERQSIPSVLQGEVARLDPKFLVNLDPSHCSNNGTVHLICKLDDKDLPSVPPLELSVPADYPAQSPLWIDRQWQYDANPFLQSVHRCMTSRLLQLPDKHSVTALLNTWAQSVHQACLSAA

Molecular target: DUX4 (double homeodomain transcription factor), MAC-tagged (human) (UniProt Q9UBX2)
Assay: affinity purification with mass spectrometry + proximity labelling

MED15 transcriptional mediator (from UniProt Q96RN5 1-788)
binding: binds
